Assay results taken from paper PMC4558493.
No constants are given. Whether binding was seen depends on the method and setting. In cells and extracts the contact can be indirect. Some entries that bind do so weakly or less than the wild type. One block for each substance: values may come before it.

Sequences of proteins named here, by UniProt entry; tags and fusion partners are left off.
UniProt Q06831: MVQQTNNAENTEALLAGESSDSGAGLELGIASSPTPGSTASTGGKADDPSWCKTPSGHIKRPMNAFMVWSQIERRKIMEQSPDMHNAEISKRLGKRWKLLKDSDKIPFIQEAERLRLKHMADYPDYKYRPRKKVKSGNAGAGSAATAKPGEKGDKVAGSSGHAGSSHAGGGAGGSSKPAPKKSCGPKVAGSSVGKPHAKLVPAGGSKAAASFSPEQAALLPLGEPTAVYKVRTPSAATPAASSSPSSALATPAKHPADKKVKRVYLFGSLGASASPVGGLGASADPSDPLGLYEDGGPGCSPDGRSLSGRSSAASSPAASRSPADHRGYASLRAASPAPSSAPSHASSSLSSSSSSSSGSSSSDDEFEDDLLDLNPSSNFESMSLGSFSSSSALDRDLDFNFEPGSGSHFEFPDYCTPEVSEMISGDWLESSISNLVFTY
UniProt Q92993: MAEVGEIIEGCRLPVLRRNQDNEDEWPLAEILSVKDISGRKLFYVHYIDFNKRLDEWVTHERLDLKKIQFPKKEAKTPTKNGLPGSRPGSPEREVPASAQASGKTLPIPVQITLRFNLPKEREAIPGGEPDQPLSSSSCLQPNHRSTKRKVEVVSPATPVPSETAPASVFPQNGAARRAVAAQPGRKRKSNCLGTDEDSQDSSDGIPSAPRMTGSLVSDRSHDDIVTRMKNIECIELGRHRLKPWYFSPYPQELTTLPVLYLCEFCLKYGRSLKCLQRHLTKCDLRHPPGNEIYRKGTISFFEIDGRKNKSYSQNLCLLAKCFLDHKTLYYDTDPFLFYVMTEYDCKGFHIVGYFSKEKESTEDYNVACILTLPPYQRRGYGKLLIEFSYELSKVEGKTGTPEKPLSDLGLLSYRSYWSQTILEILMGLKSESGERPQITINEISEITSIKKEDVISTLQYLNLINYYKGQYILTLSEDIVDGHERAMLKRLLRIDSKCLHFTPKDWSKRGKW
UniProt Q8CHK4: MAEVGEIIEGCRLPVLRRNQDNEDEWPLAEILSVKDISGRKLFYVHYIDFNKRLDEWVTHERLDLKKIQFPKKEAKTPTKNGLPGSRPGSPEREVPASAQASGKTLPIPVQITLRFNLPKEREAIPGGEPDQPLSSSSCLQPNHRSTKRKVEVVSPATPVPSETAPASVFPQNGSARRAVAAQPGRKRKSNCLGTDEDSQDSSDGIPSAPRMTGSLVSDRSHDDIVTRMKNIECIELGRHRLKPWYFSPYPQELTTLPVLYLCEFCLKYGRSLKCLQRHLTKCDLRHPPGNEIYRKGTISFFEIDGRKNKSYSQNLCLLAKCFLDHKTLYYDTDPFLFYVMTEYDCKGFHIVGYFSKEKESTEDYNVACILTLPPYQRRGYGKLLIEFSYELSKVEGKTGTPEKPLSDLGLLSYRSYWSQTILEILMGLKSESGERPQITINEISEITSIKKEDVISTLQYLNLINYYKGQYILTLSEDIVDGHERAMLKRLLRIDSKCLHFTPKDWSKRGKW
UniProt O09106: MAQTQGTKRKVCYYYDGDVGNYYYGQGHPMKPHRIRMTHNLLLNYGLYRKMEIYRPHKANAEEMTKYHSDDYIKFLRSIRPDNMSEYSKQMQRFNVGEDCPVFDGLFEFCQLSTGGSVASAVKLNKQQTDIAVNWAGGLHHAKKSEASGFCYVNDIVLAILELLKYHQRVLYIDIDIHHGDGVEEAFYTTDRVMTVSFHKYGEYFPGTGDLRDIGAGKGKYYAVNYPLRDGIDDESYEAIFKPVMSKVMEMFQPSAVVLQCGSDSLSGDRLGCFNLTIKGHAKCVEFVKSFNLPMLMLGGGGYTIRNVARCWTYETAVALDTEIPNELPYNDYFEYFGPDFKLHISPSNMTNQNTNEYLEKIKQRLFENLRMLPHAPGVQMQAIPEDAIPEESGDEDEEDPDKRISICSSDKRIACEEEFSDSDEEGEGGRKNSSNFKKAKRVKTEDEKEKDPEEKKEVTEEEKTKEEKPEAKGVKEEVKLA

Key:
[1] = target: GFP-fused full-length SOX4 (UniProt Q06831); test: co-IP; HEK293 cells co-transfected with FLAG- and GFP-tagged constructs; lysis in 1% Triton X-100, 150 mM NaCl, 50 mM Tris-HCl pH 7.5, 0.1% SDS, 1% Nonidet P-40; precipitated with anti-GFP or anti-FLAG antibodies on protein A/G-agarose at 4 °C overnight, blotted for the other tag
[2] = target: FLAG-KAT5 (UniProt Q92993); test: as above
[3] = target: SOX4 (endogenous, C2C12) (mouse (endogenous in C2C12)) (UniProt Q06831); test: co-IP; KAT5-silenced C2C12 cells transfected with GFP-KAT5 WT or Y47A, 3 days in differentiation medium; lysates precipitated with SOX4 antibodies, bound KAT5 detected with KAT5 antibodies
[4] = target: SOX4 (endogenous, C2C12) (mouse (endogenous in C2C12)) (UniProt Q06831); test: condition: only proliferating myoblasts (D0), before the induction of differentiation; co-IP; endogenous proteins; lysates of proliferating C2C12 myoblasts (D0) precipitated with SOX4 antibodies, blotted with KAT5 antibodies
[5] = target: SOX4 (endogenous, C2C12) (mouse (endogenous in C2C12)) (UniProt Q06831); test: co-IP; endogenous proteins; lysates of differentiating C2C12 cells (D3 in Figure 2b; indicated time points in Figure 7a) precipitated with SOX4 antibodies, blotted with KAT5 or HDAC1 antibodies
[6] = target: FLAG-SOX4 (UniProt Q06831); test: co-IP; HEK293 cells co-transfected with FLAG- and GFP-tagged constructs; lysis in 1% Triton X-100, 150 mM NaCl, 50 mM Tris-HCl pH 7.5, 0.1% SDS, 1% Nonidet P-40; precipitated with anti-GFP or anti-FLAG antibodies on protein A/G-agarose at 4 °C overnight, blotted for the other tag

Substance: GFP-fused full-length SOX4 (from UniProt Q06831 1-440)
binding [2]: binds

Substance: KAT5 (endogenous, C2C12) (from UniProt Q8CHK4 1-513)
binding [4]: no binding | binding [5]: binds

Substance: HDAC1 (endogenous, C2C12) (from UniProt O09106 1-482)
binding [5]: binds

Substance: GFP-KAT5 full-length (from UniProt Q92993 1-513)
binding [6]: binds

Next, values leading:

binding [1]: binds
Substance: FLAG-KAT5 (from UniProt Q92993 1-513)

binding [3]: binds
Substance: GFP-KAT5 WT (in C2C12) (from UniProt Q92993 1-513)
